According to the supplement of paper PMC11732987, “Enantioselective OTUD7B fragment discovery through chemoproteomics screening and high-throughput optimisation” (Communications Chemistry, 2025):
Some of the results follow. The data scatter; read single values as rough.

The chains behind the UniProt entries cited, without tags or fusion partners. Where a name states a change or a piece, a line headed by the entry shows the natural chain unless it says otherwise. Residues count along the entry.
UniProt Q8NCN4: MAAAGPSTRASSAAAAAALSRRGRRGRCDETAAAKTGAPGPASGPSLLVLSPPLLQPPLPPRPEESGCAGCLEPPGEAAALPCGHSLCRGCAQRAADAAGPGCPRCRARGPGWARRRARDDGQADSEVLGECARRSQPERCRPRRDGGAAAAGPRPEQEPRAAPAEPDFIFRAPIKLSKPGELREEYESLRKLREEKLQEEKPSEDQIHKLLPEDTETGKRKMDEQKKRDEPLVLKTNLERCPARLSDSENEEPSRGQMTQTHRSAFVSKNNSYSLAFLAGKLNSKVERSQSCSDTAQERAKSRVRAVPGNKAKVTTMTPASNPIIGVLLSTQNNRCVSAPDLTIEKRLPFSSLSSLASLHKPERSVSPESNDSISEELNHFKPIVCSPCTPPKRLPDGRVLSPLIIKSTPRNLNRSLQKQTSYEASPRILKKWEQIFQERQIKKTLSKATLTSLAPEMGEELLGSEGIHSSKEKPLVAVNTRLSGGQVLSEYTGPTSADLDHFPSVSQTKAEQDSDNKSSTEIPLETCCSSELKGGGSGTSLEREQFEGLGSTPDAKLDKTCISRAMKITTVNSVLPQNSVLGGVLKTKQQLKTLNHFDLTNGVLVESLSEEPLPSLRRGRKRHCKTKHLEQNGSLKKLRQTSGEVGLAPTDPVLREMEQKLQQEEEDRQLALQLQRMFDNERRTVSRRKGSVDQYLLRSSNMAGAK
UniProt Q92834: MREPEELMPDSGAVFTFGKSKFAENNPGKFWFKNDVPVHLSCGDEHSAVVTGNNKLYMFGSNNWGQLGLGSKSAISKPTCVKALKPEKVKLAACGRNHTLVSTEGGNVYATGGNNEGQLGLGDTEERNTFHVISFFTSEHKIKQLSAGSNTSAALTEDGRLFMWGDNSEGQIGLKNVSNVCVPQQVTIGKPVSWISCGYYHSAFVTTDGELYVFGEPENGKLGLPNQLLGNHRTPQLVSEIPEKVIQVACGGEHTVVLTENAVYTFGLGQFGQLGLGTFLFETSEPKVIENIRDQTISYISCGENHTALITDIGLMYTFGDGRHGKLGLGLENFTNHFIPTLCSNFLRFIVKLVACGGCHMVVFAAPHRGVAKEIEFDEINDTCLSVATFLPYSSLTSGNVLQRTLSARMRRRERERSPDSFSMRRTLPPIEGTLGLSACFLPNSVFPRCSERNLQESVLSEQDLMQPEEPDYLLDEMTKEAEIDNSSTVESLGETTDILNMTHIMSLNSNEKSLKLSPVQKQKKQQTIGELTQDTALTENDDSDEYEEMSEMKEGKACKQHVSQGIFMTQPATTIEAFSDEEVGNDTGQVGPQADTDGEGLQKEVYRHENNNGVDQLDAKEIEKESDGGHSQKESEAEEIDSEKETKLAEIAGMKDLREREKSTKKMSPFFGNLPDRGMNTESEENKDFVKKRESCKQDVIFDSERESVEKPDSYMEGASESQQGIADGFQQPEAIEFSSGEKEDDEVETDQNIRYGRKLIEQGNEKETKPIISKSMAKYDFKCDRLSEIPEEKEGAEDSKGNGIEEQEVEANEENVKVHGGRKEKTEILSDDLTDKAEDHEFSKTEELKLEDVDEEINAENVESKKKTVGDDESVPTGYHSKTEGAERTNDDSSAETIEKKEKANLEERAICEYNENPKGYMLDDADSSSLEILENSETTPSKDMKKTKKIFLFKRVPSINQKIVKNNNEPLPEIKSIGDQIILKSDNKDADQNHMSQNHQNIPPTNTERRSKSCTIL
UniProt P27694: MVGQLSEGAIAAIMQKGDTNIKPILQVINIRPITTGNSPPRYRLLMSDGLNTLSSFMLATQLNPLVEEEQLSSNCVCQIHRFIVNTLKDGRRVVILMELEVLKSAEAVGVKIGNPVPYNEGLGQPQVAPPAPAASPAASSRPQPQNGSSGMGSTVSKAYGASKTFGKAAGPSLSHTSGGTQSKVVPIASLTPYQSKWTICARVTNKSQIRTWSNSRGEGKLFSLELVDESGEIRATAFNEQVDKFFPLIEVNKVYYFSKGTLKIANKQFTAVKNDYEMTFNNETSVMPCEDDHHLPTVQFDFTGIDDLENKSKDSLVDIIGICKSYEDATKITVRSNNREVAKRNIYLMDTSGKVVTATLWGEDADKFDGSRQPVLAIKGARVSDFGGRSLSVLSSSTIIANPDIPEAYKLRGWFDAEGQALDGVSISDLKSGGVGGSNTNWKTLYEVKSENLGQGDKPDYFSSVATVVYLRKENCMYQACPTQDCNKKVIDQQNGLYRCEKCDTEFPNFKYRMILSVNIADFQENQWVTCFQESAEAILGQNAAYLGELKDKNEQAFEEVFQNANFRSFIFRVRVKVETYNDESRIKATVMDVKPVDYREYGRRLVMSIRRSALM
UniProt P23921: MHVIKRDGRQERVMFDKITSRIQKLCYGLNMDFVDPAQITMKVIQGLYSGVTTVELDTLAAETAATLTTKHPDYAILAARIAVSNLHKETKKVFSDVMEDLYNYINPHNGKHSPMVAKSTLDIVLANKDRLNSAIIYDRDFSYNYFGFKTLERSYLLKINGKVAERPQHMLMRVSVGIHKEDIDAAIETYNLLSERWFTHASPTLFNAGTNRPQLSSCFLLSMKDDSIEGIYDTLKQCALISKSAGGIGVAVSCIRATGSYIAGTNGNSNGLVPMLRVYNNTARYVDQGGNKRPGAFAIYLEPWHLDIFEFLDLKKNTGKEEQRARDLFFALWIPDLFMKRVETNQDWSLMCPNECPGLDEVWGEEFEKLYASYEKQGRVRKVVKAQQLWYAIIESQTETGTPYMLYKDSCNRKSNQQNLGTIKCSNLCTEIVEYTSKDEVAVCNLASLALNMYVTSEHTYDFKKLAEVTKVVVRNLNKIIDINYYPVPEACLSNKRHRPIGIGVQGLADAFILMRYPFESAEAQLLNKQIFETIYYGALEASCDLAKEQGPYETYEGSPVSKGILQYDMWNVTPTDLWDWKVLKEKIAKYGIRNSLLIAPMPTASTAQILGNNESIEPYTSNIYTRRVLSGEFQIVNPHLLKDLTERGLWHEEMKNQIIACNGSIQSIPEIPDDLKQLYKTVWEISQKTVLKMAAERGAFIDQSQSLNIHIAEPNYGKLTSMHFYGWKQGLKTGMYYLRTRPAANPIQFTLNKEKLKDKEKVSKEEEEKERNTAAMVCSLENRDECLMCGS
UniProt Q9H4A4: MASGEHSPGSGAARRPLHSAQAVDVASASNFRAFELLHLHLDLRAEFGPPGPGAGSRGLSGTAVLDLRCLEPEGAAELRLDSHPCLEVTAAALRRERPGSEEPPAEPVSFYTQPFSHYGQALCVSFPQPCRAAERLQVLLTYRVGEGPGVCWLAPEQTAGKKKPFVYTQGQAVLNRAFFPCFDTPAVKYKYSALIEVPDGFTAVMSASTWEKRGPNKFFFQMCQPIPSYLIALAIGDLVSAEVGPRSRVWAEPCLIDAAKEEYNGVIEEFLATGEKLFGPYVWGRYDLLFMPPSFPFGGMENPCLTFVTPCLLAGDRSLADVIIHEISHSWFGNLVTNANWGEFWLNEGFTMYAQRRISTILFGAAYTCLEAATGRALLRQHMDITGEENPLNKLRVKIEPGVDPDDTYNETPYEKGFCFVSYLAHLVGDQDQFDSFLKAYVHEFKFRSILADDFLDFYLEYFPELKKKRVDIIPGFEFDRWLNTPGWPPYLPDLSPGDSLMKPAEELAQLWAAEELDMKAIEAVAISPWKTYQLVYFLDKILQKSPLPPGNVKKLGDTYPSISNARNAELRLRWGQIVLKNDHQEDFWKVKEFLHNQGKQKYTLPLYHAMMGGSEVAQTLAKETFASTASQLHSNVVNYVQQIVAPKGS
UniProt P10155: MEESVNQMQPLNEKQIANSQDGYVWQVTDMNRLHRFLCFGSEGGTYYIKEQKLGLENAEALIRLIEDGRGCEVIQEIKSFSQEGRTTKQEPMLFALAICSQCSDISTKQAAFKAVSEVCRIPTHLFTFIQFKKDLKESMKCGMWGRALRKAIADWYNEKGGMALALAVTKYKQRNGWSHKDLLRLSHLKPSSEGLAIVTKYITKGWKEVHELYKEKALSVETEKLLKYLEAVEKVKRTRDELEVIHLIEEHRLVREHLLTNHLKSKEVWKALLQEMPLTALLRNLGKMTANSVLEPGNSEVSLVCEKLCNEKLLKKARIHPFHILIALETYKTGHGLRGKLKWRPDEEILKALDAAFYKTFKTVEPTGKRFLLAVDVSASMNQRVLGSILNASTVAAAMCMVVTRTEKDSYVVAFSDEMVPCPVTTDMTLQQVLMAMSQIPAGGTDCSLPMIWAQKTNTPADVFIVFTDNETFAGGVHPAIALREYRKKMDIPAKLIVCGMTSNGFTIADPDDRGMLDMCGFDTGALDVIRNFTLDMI
UniProt Q9H7B2, 135-158: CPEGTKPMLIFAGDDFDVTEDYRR
UniProt Q96BU1, 146-173: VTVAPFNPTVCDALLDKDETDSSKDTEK
UniProt Q92622: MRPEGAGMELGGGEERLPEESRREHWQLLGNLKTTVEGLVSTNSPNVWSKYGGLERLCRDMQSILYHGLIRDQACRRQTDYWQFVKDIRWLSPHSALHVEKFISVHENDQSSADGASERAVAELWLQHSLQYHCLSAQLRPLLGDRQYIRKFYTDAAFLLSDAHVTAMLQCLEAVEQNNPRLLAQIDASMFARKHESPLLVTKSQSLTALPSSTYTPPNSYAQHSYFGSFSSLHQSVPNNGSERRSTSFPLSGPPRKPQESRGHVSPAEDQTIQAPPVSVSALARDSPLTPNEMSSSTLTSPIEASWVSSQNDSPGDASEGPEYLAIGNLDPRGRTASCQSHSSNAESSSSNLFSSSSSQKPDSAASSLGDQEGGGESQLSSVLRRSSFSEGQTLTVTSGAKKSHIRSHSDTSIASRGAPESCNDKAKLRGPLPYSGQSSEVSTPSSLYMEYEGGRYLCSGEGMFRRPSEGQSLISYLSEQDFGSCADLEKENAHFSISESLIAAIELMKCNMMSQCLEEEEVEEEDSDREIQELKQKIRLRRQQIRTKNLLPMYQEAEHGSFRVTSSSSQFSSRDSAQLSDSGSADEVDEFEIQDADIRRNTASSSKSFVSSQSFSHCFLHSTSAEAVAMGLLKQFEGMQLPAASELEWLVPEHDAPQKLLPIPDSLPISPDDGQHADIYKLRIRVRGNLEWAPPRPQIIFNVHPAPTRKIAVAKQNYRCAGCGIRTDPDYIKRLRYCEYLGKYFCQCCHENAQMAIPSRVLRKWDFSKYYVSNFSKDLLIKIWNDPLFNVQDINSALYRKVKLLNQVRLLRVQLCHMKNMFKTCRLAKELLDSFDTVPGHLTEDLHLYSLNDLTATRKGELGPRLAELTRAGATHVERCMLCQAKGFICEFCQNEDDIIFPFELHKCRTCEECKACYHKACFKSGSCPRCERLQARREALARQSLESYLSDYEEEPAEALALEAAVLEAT
UniProt Q9Y230, whole entry, looked up: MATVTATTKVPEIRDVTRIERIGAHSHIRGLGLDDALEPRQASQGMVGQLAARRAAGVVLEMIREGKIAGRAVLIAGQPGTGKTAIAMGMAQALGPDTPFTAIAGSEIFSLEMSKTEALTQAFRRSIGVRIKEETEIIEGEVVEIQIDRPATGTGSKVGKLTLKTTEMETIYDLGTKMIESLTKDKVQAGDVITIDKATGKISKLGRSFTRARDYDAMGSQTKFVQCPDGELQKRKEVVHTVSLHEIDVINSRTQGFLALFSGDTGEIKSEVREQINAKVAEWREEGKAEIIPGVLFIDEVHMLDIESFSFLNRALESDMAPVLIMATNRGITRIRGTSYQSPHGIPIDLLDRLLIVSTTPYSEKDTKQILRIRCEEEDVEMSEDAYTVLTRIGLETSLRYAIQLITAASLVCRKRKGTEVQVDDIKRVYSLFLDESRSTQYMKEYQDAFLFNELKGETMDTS
UniProt O76064, 285-309: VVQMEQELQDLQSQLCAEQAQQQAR
UniProt Q6PCB5, 2-28: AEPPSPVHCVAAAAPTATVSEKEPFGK
UniProt Q15418: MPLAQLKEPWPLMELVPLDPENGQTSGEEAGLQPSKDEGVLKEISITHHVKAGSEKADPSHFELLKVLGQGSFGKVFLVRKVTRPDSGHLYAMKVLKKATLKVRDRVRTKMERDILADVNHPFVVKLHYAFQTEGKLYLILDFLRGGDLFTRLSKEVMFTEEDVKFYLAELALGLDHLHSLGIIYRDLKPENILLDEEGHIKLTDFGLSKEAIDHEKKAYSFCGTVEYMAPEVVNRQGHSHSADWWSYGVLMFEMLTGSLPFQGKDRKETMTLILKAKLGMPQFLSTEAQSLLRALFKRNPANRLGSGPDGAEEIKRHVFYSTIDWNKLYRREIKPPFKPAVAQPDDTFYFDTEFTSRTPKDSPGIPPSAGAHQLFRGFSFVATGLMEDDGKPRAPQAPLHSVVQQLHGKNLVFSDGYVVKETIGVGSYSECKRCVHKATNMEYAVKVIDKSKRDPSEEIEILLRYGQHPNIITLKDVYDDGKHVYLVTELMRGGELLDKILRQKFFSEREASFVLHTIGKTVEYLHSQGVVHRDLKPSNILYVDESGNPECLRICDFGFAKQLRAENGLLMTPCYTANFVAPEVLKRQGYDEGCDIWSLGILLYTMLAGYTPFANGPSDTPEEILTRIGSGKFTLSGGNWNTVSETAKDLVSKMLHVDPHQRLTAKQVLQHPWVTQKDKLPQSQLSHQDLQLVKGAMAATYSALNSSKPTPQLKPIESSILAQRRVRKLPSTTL

Legend:
[1] = compound: ClCC(=O)N[C@@H]1CCCc2ccccc12; experiment: log2 mean competition ratio of IA-DTB cysteine labelling (DMSO/compound) (log2 ratio); higher = stronger cysteine engagement by compound; conditions: treatment time: 4 h, cell line lysate: HEK293T
Description: (§1)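 IA-DTB competitive cysteine chemoproteomics in HEK293T RIPA lysate. Lysates were treated with compound 29 or 30 at 50 or 200 µM for 4 h, then IA-DTB (500 µM, 1 h), trypsin-digested, NeutrAvidin-enriched and analysed by diaPASEF. Competition ratio = intensity DMSO / intensity compound (n=4 treated, n=64 DMSO); binding: mean log2 CR ≥ 1 and p ≤ 0.05 plus QC filters. Target is the cysteine site.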

[2] = compound: ClCC(=O)N[C@H]1CCCc2ccccc12; experiment: as above; conditions: treatment time: 4 h, cell line lysate: HEK293T
Description: as §1

Row | Target | log2 mean competition ratio ([1]; 50 µM) | log2 mean competition ratio ([1]; 200 µM) | log2 mean competition ratio ([2]; 50 µM) | log2 mean competition ratio ([2]; 200 µM)
1 | RSAD1 C74 (UniProt Q9HA92) | 0.413 | 0.354 | 0.266 | 0.0828
2 | RTCB C485 (UniProt Q9Y3I0) | -0.334 | -0.238 | -0.302 | -0.25
3 | SACS C2484 (UniProt Q9NZJ4) | 0.0348 | 0.118 | -0.187 | -0.057
4 | RNF169 C293 (UniProt Q8NCN4) | -0.0118 | 0.113 | 0.112 | -0.18
5 | RPGR C914 (UniProt Q92834) | 0.0345 | -0.0854 | -0.323 | -0.0585
6 | RPS3 C134 | 0.239 | -0.73 | 0.793 | -0.301
7 | RNF114 C110 (UniProt Q9Y508) | 0.0392 | -0.0261 | -0.113 | 0.0351
8 | RPA1 C323 (UniProt P27694) | -0.171 | 0.0811 | -0.553 | 0.0886
9 | RRM1 C492 (UniProt P23921) | -0.0473 | -0.133 | -0.141 | -0.24
10 | RNPC3 C343 (UniProt Q96LT9) | -0.342 | -0.00228 | -0.0499 | -0.0429
11 | RXRB C191 (UniProt P28702) | 0.398 | -0.452 | 0.482 | -0.209
12 | RRBP1 C892 (UniProt Q9P2E9) | 0.6 | -0.0166 | 0.413 | -0.182
13 | RSL1D1 C211 (UniProt O76021) | -0.0285 | 0.0585 | -0.032 | 0.0414
14 | RNFT1 C90 (UniProt Q5M7Z0) | -0.295 | -0.133 | -0.192 | -0.0135
15 | RNF213 C2918 | -0.0161 | -0.107 | 0.256 | -0.128
16 | RNF213 C2536 | 0.103 | 0.342 | -0.0257 | 0.0575
17 | RNPEP C181 (UniProt Q9H4A4) | -0.133 | 0.265 | -0.256 | 0.553
18 | ROCK1 C714 (UniProt Q13464) | -0.033 | -0.22 | 0.11 | -0.165
19 | RPS15A C30 (UniProt P62244) | -0.156 | -0.127 | 0.268 | -0.0896
20 | RNF169 C103 (UniProt Q8NCN4) | 0.084 | 0.0702 | 0.0309 | 0.129
21 | RO60 C119 (UniProt P10155) | 0.0305 | 0.128 | 0.249 | 0.153
22 | RPF2 C135 (UniProt Q9H7B2) | 0.182 | -0.0492 | -0.0653 | -0.00278
23 | S100PBP C156 (UniProt Q96BU1) | -0.117 | -0.579 | 0.03 | -0.174
24 | RTN3 C390 (UniProt O95197) | -0.309 | -0.215 | -0.718 | 0.0406
25 | RPRD1A C220 (UniProt Q96P16) | -0.0528 | 0.0266 | 0.218 | -0.402

A run of entries from the list above:
Row | Target | log2 mean competition ratio ([1]; 50 µM) | log2 mean competition ratio ([1]; 200 µM) | log2 mean competition ratio ([2]; 50 µM) | log2 mean competition ratio ([2]; 200 µM)
5 | RPGR C914 (UniProt Q92834) | 0.0345 | -0.0854 | -0.323 | -0.0585
6 | RPS3 C134 | 0.239 | -0.73 | 0.793 | -0.301

Next part:

Row | Target | log2 mean competition ratio ([1]; 50 µM) | log2 mean competition ratio ([1]; 200 µM) | log2 mean competition ratio ([2]; 50 µM) | log2 mean competition ratio ([2]; 200 µM)
26 | RO60 C499 (UniProt P10155) | 0.223 | 0.331 | 0.634 | -0.0612
27 | RNF213 C2497 | 0.408 | 0.052 | 0.0822 | -0.338
28 | ROR1 C848 | 0.313 | 0.0213 | 0.469 | -0.0311
29 | RPLP0 C119 | -0.3 | -0.42 | 0.411 | -0.249
30 | RUBCN C459 (UniProt Q92622) | -0.0945 | -0.104 | -0.355 | 0.143
31 | RTTN C1889 (UniProt Q86VV8) | 0.161 | -0.0432 | -0.104 | -0.109
32 | RPL34 C49 (UniProt P49207) | -0.134 | 0.316 | -0.143 | 0.375
33 | RUVBL2 C227 (UniProt Q9Y230) | -0.179 | -0.169 | -0.39 | -0.132
34 | RPL4 C208 (UniProt P36578) | 0.331 | 0.124 | 0.447 | 0.0455
35 | RNFT1 C62 (UniProt Q5M7Z0) | 0.146 | 0.126 | 0.278 | -0.0899
36 | RNF213 C614 | 0.129 | 1.01 | 0.344 | 1.34
37 | RNF213 C3084 | 0.613 | 0.0473 | 0.106 | 0.0953
38 | RRP7A C82 (UniProt Q9Y3A4) | 0.167 | 0.223 | 0.415 | 0.186
39 | RNF213 C1429 | 0.456 | -0.45 | 0.43 | -0.259
40 | RSRC2 C382 (UniProt Q7L4I2) | -0.0744 | 0.316 | -0.325 | 0.181
41 | RO60 C71 (UniProt P10155) | -0.0384 | -0.363 | 0.629 | 0.132
42 | RPS20 C70 (UniProt P60866) | 0.325 | -0.323 | 0.282 | -0.219
43 | RXRB C30 (UniProt P28702) | 0.285 | 0.242 | 0.453 | 0.126
44 | RPAP3 C519 (UniProt Q9H6T3) | -0.0978 | -0.00452 | -0.212 | 0.087
45 | RNF8 C300 (UniProt O76064) | -0.0686 | 0.0107 | -0.0706 | -0.0469
46 | RPRD2 C1071 (UniProt Q5VT52) | -0.103 | -0.211 | 0.139 | -0.135
47 | RSBN1L C10 (UniProt Q6PCB5) | 0.0128 | -0.0553 | 0.502 | -0.0352
48 | RRM1 C238 (UniProt P23921) | -0.553 | -0.91 | 0.292 | -0.269
49 | RPS6KA1 C432 (UniProt Q15418) | 0.0545 | -0.108 | 0.864 | -0.235
